Earlier results, collected in US11911451B2, “Composition of tumor-associated proliferative peptides and related anti-cancer immunogen for the treatment of lung cancers and other cancers” (ImmuLogix Ltd, priority 2017, dated 2024).
At least one compound was matched to its structure with a doubt left.

Test system: NCI-H69
Details: NCI-H69 xenograft, nude mice

## CSCC[C@H](NC(=O)[C@H](CC(C)C)NC(=O)[C@H](Cc1cnc[nH]1)NC(=O)CNC(=O)[C@@H](NC(=O)[C@H](C)NC(=O)[C@H](Cc1c[nH]c2ccccc12)NC(=O)[C@H](CCC(N)=O)NC(=O)[C@H](CC(N)=O)NC(=O)CNC(=O)[C@H](CC(C)C)NC(=O)[C@H](CCCN=C(N)N)NC(=O)[C@H](CCC(N)=O)NC(=O)[C@@H]1CCC(=O)N1)C(C)C)C(N)=O [bombesin]
  tumor weight and DNA content: significantly increased
